Results: paper PMC5687922
No constants are given. Whether binding was seen depends on the method and setting. In cells and extracts the contact can be indirect. Some entries that bind do so weakly or less than the wild type. Where a sequence is shown, tags or fusion partners need not be part of it.

Target: Candida albicans Snf6, TAP-tagged (Snf6-TAP) (Candida albicans)
Assay: co-IP; lysates of Snf6-TAP and double-tagged C. albicans strains (mid-log, YPD) in IP150 buffer (50 mM Tris-HCl pH 7.4, 150 mM NaCl, 2 mM MgCl2, 0.1% Nonidet P-40); 1 mg total protein with IgG Sepharose, anti-Myc (9E10) or anti-HA (12CA5), 4°C overnight; Western blot with anti-TAP, anti-Myc or anti-HA

binding: binds
B1: Swi1, epitope-tagged (double-tagged strain with Snf6-TAP) (protein, UniProt Q59UR3 1-987)
chain: MSDWLNENAFADSNSNDDFLNSIFDQSQGEQQAPQVAQVSTSMSNPPLQSQSASSTSRISQAHTPMYQQSPVTAHTIPQNSPQSMPNQVAQPQQQIPPPPSQHLQQTTAQMLPQQQQQQQQQQQQQQKQEQLYRMKQQIYQQQMLKKQQENMSRQPSPMNSAGHNTQQNTPITQNAKTPQNNSKLQSMQMELFFSVLYDFLQRSGISIPQSLAINGKRVNLFILYILSQRLGGYRVMKAFLLMSPEQQRMQQQNPWALMADKMGFHDKGEDPMAKERIARELCNCYSNFILPYEEYYATPEGNKDIEASKHRFQQQIVQKYSSNVPTPAPNQQSPMISSAPTPHQQRKLSRTSNSVNNSPNVSSPFHNTPRQVPAPAPAPVQTAASMPPPTPVTAKSQTTKADAHILKNYTPFKKIVETHGPFNIKELSQLSTEIEVTKPVYLFAPELGIINLQALTMSVKSNSGIQSSEVVNALNTLLVATSDVNYAFQIKDIMELLDALSSLGKDVLNKIVGVNTEEDCVNADVTKLSANGRIDDIFNRYVKGQGEDISYVVNSLTGEVVSDDEDIEELFSVCDDGNSESPIDKSTDSLDVLEFHLDDYLTALKNFKSENKHHFSKLQTRSATDDQILLVDELITITMILRNISFAEYNKEPMAGNRLFKDLLFSTVKSVALNNDKFVFSRKRLCLLKDCLLMLDNISLFTHLHTLEEAFLSFVLVASFGPKIEDQYKIPRCNIETHSYFAFGLDAFTKLMVREPYNRSLIQAVLNGTLNSSMTGYSVSLQDQEYTRKLIKAYNKDYKSASLLSQAFQMYMSILPFDANTFELSKFIFMRSPTISQMLFGAKLLIDMVPVDDLNTHHNKLSLYWLLENRELLLGNFARIVVALSTETGKFPRESPEHKVLSSVLRKALVVINSLVDNAVLAKEIGDSRHTDLMESLTDCLAFPRIIPDAILTLDTFLAPTIDTNLGKEVVRLLRYLKDLKACEGI
